Test results published in patent publication US10702592B2, “Peptides and combination of peptides for use in immunotherapy against NHL and other cancers” (Immatics Biotechnologies GmbH, priority 2016, dated 2020).

How the values were obtained:
NHL samples = test: Identification and label-free LC-MS quantitation of HLA-presented peptides: presentation profile/score, NHL vs normal tissues; set-up: species or system human; key: very highly over-presented on tumors compared to a panel of normal tissues (+++); highly over-presented on tumors compared to a panel of normal tissues (++); over-presented on tumors compared to a panel of normal tissues (+); details: NHL tumors compared to a panel of normal tissues
source gene mRNA = test: RNAseq expression profiling of source genes, NHL vs normal tissues (expression scores); set-up: species or system human; key: very highly over-expressed in tumors compared to a panel of normal tissues (+++); highly over-expressed in tumors compared to a panel of normal tissues (++); over-expressed in tumors compared to a panel of normal tissues (+); details: source gene over-expression in tumors compared to a panel of normal tissues
[1] = tested on: other tumor types (tumor samples vs normal tissues); test: LC-MS detection / over-presentation of peptides on additional tumor types; set-up: species or system human; details: for Other relevant organs/diseases: additional tumor types on which the peptide was found: over-presented on more than 5% of measured tumor samples, or presented on more than 5% with ratio of geometric means tumor vs normal tissues larger than 3; for Other relevant organs / diseases (additional tumor types with over-presentation): over-presented on >5% of measured tumor samples, or presented on >5% with ratio of geometric means tumor vs normal >3

Row | Substance | Peptide Presentation (NHL samples) | Gene Expression (expression score) (source gene mRNA) | Other relevant organs/diseases [1] | Other relevant organs / diseases (additional tumor types with over-presentation) [1]
1 | 91: peptide found in TIGIT (gene looked up) (HLSSTTAQV; listed as Homo sapiens) [compound 91] | +++ | ++ |  | 
2 | 43: peptide found in KDM2B (gene looked up) (ALLEGVKNV; listed as Homo sapiens) [compound 43] | + | + | CLL, Melanoma, OC | SCLC, BRCA
3 | 61: peptide found in DNMT1 (gene looked up) (SLLNKDLSL; listed as Homo sapiens) [compound 61] | + | + | Uterine Cancer | Esophageal Cancer, AML, HNSCC
4 | 158: peptide found in TAS1R3 (gene looked up) (KVQDVLHQV; listed as Homo sapiens) [compound 158] | +++ | +++ |  | 
5 | 260: peptide found in DUSP2 (gene looked up) (RLDEAFDFV; listed as Homo sapiens) [compound 260] | ++ | ++ | Melanoma, Urinary bladder cancer, Uterine Cancer | RCC, CLL
6 | 268: peptide found in MAP4K1 (gene looked up) (VLFPLPTPL; listed as Homo sapiens) [compound 268] | +++ | + | CLL | AML
7 | 238: peptide found in CR2 (gene looked up) (YQYGAVVTL; listed as Homo sapiens) [compound 238] |  | ++ | CLL | 
8 | 229: peptide found in PARP1 (gene looked up) (ILSPWGAEV; listed as Homo sapiens) [compound 229] |  | ++ | CLL, AML, Melanoma, Urinary bladder cancer | 
9 | 141 (FLGELTLQL; listed as Homo sapiens) [compound 141] | +++ |  | Melanoma | 
10 | 166 (SLFSEVASL; listed as Homo sapiens) [compound 166] | +++ |  | Melanoma | AML
11 | 55 (ILVEVDLVQA; listed as Homo sapiens) [compound 55] | ++ |  | CLL, Uterine Cancer | Esophageal Cancer
12 | 163 (SIFDAVLKGV; listed as Homo sapiens) [compound 163] | +++ |  | RCC, CRC, BRCA, Uterine Cancer | HCC, Urinary Bladder Cancer, HNSCC
13 | 133: peptide found in MKI67 (gene looked up) (ALEELTGFREL; listed as Homo sapiens) [compound 133] | +++ | + | Esophageal Cancer | 
14 | 185 (FIAQLNNVEL; listed as Homo sapiens) [compound 185] | + |  | Melanoma, OC | AML
15 | 267 (SLLETGSDLLL; listed as Homo sapiens) [compound 267] | +++ |  | HCC, Esophageal Cancer | Urinary Bladder Cancer, AML
16 | 207 (GLVGLLEQA; listed as Homo sapiens) [compound 207] | ++ |  | SCLC, HCC, CLL, AML, BRCA, Melanoma, OC, Uterine Cancer, Gallbladder Cancer, Bile Duct Cancer | 
17 | 280 (SLLNHLPYL; listed as Homo sapiens) [compound 280] | +++ |  | CLL | HNSCC
18 | 189 (SLSHLVPAL; listed as Homo sapiens) [compound 189] | + |  | CLL | 
19 | 221 (FLAPDNSLLLA; listed as Homo sapiens) [compound 221] | +++ |  | Gallbladder Cancer, Bile Duct Cancer | AML
20 | 13 (HLVPASWKL; listed as Homo sapiens) [compound 13] | +++ |  | CLL, Melanoma | 
21 | 124 (FLGVVVPTV; listed as Homo sapiens) [compound 124] | +++ |  | CLL, Melanoma, OC, Uterine Cancer | AML, HNSCC
22 | 117 (VLATILAQL; listed as Homo sapiens) [compound 117] | +++ |  | SCLC, AML, Uterine Cancer | 
23 | 285 (SITAVTPLL; listed as Homo sapiens) [compound 285] | + |  | RCC, AML | 
24 | 17 (VIIPLLSSV; listed as Homo sapiens) [compound 17] | +++ |  | CLL, AML, BRCA, Melanoma | 
25 | 40 (FLNSVIVDL; listed as Homo sapiens) [compound 40] | + |  | CLL, Melanoma, Urinary bladder cancer | 

For some of these results: Expression values are those of the mRNA of the gene that encodes the peptide; a gene is named only where it was looked up.
